In this assay the target is T1, CHIP-myc K30A (human), Q9UNE7.
T1 chain: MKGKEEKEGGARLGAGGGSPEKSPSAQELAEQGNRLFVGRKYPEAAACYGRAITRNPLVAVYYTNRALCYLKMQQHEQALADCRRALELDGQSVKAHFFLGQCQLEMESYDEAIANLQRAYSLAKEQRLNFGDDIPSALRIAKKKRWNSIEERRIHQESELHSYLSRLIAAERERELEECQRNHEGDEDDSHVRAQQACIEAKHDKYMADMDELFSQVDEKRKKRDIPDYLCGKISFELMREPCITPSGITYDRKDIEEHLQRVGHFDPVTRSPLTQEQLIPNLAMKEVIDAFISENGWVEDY
As to the kind of experiment: native gel or EMSA; Blue native PAGE and immunoblot of lysates (Native PAGE sample buffer, 1% digitonin) of transfected COS-7 cells kept at 37 °C or heat-shocked at 42 °C for 2 h; self-association. Conditions: remark: other sources report otherwise. Background: A gel shift assay detects complexes by their altered migration in electrophoresis.

Results are given in words; binding and its absence hold for the method and conditions named. Some entries that bind do so weakly or less than the wild type. Sequences can lack the tags named with a protein.

B1: CHIP-myc K30A, Q9UNE7-1 1-303 (enzyme)
chain: MKGKEEKEGGARLGAGGGSPEKSPSAQELAEQGNRLFVGRKYPEAAACYGRAITRNPLVAVYYTNRALCYLKMQQHEQALADCRRALELDGQSVKAHFFLGQCQLEMESYDEAIANLQRAYSLAKEQRLNFGDDIPSALRIAKKKRWNSIEERRIHQESELHSYLSRLIAAERERELEECQRNHEGDEDDSHVRAQQACIEAKHDKYMADMDELFSQVDEKRKKRDIPDYLCGKISFELMREPCITPSGITYDRKDIEEHLQRVGHFDPVTRSPLTQEQLIPNLAMKEVIDAFISENGWVEDY
B1: the binding entry was “binds”.
